Reference: US4745223A, “Mono-tertiary-alkylated toluenediamine and derivatives” (Air Products and Chemicals, Inc., priority 1985, dated 1988)
At least one compound was matched to its structure with a doubt left.

Assay: Pot life test of chain extenders in polyurethane-urea formulation
Details: 50° C.; log (relative viscosity) = I + A*(time) + B*(time)**2 + C*(time)**3
Procedure: A series of polyurethane-urea elastomers utilizing various chain extenders was prepared and evaluated in a pot life test system for the purpose of determining the reactivity of the chain extenders in standard urethane formulations relative to one another. The polyurethane-urea elastomers were formulated by reacting a prepolymer of poly(1,4-oxytetramethylene)glycol end-capped with 2,4-toluene diisocyanate, the prepolymer having an NCO content generally from 5-7%, with the test candidate chain extender aromatic diamine and a diol. The nominal stoichiometric equivalent ratio of isocyanate to diamine chain extender to diol for each sample is 2:1:1.
The test system for measuring pot life comprised a heated test chamber for holding 7 grams of test sample at a constant temperature (50° C.) and was equipped with a vertical perforated piston. This piston moves up and down through the test sample in timed relationship. (The temperature rise due to the exothermic reaction is discounted.) The force necessary to move the piston through the polymer sample is measured in arbitrary units, and the relationship of the force is plotted as a function of time. The force-pot life relationship of the urethane system during cure then is correlated to known force-viscosity relationships for the urethane-urea systems.
The coefficients apply to the equation:
log (viscosity)=I+A(time)+B(time)^2 +C(time)^3. […]

SMILES: CC(C)(C)c1ccc(N)cc1N [tBBDA, tertiaryButyl-2,4-benzenediamine]
- lineshape coefficient A (quasi reaction rate constant, initial reactivity): .l374
